The full ranking holds about 2,300 compounds; the median of “growth induction” is about -24, and the highest 2% start at about 42. Some of the results follow. Entries with a potency or affinity are not part of this list. The source made no clear call on entries shown without one.

A short description of the test: growth induction of Burl-1 ts yeast mutant, dose response, counter-screen for SUMOylation pathway inhibitor project, whole organism, S. cerevisiae, luminescence (AID 463199). The settings on record: S. cerevisiae Burl-1 ts mutant growth, BacTiter-Glo, 38.5C 24 h; at 42 µM (top of the series). (In general: Counterscreens check selectivity or assay interference.)
On to `C[n+]1c(-c2ccccc2)cc(CCCCc2cc(-c3ccccc3)[n+](C)c(-c3ccccc3)c2)cc1-c1ccccc1`, for which the growth induction was -57.5%.

The values are drawn from PubChem BioAssay AID463199 (Broad Institute, 2010).
